In paper PMC7784988:
These are yes or no findings as the source states them, for the method shown. For some assays here: In cells and extracts the contact can be indirect. Some entries that bind do so weakly or less than the wild type. Tags and fused reporters may be left off the sequences shown. Each block holds one molecule with its values, some of them ahead of it.

Assays:
[1] = biological target: T1, GST-tagged recombinant mouse TNC (1–700aa) (mouse) (UniProt Q80YX1); assay: pull-down; 500 ng/mL GST-tagged TNC (1-700aa) added to the culture medium of MuSCs for 4 h; cells washed and lysed (1% Triton X-100, 150 mM NaCl, 20 mM Tris/HCl pH 7.4, 5% glycerol); glutathione Sepharose 4B beads at 4 °C overnight; immunoblot with anti-EGFR; only the target purified
T1 sequence: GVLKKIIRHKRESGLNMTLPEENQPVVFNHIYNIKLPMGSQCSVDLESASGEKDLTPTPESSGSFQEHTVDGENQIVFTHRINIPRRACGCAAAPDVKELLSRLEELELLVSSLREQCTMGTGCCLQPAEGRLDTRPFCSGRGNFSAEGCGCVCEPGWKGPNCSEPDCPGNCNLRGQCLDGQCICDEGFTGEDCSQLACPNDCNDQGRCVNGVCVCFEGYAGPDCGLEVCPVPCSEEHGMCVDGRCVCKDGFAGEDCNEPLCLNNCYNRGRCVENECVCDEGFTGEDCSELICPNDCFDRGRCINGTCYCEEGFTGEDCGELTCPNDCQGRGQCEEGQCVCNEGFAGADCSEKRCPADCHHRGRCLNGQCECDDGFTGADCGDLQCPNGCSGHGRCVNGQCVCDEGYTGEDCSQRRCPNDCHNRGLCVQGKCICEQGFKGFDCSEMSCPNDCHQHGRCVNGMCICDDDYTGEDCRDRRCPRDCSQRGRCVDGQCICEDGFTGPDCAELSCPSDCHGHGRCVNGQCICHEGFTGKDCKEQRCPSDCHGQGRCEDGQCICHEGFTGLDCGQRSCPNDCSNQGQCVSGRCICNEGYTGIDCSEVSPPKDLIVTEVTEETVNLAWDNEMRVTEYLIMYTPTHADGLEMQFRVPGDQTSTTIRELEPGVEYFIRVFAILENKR

[2] = biological target: T1, GST-tagged recombinant mouse TNC (1–700aa) (mouse); assay: SEC; Superose 6 Increase 10/300 GL in PBS/Az, 0.3 mL/min, HMW calibration kit as mass standards; proteins eluted from glutathione beads with 30 mM GSH; both purified

- binding [1]: binds
Molecule: EGF receptor (EGFR) (from UniProt Q01279 25-1210)

- binding [2]: binds
B1: GST-tagged recombinant mouse TNC (1–700aa) (domain or fragment, UniProt Q80YX1 23-700)
chain: T1 sequence
